In one test the target is T1, Myc-S96D STN1 (human) (UniProt Q9H668).
T1 sequence: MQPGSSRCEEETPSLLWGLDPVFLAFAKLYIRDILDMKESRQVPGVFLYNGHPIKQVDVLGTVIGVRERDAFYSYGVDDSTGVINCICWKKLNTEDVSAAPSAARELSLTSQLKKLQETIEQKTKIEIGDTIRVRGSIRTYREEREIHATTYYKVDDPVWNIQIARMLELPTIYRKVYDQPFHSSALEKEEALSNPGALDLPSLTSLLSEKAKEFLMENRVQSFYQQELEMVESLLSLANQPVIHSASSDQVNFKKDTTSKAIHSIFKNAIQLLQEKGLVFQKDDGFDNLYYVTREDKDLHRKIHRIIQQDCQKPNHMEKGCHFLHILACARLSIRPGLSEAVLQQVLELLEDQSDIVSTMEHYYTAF
The test is described as follows: co-IP; HEK293T transfected with Myc-STN1/S96D/S96A, 4 mM HU for 3 h; anti-c-Myc agarose resin; lysis buffer 0.1% NP-40, 50 mM Tris-HCl pH 7.4, 50 mM NaCl, 2 mM DTT; western blot for POLα.

Amino acid sequences for entries named in this document (tags omitted).
UniProt P09884: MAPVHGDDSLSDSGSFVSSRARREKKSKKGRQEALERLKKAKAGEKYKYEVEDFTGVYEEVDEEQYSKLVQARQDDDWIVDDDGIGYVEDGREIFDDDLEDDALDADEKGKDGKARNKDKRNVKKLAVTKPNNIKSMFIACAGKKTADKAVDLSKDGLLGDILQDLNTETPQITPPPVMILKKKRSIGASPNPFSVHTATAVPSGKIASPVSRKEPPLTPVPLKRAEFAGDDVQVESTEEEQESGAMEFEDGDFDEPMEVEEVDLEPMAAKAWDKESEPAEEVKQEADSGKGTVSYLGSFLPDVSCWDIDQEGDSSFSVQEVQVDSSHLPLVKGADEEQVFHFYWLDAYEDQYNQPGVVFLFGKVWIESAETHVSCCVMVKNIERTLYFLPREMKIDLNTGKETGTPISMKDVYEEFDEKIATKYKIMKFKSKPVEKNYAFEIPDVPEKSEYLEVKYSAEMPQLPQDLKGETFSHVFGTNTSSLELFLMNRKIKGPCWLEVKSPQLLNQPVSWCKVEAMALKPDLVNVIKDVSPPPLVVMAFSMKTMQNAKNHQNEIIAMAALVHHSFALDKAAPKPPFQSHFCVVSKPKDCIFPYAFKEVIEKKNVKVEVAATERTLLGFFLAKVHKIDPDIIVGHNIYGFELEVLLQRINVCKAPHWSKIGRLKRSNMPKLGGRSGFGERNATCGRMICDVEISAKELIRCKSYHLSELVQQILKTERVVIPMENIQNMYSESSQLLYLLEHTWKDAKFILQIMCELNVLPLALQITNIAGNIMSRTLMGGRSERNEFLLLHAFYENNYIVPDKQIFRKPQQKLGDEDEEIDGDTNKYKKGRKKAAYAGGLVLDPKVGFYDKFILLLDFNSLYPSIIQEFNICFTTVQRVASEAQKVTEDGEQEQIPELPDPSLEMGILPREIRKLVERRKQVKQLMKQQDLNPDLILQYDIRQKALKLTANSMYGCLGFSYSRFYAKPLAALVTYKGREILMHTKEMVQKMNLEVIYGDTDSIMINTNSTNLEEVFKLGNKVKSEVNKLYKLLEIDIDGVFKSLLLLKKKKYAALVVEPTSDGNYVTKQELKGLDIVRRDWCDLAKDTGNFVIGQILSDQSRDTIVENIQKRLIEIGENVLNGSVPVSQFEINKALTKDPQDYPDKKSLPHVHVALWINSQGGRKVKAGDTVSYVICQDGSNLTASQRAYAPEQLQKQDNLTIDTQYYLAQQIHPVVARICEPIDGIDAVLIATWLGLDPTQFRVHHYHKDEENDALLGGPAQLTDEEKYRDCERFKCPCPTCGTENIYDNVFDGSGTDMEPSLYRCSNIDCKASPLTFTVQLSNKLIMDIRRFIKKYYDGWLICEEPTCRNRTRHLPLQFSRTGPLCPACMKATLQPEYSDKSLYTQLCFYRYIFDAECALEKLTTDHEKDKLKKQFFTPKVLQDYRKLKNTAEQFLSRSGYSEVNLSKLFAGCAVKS
UniProt Q06609: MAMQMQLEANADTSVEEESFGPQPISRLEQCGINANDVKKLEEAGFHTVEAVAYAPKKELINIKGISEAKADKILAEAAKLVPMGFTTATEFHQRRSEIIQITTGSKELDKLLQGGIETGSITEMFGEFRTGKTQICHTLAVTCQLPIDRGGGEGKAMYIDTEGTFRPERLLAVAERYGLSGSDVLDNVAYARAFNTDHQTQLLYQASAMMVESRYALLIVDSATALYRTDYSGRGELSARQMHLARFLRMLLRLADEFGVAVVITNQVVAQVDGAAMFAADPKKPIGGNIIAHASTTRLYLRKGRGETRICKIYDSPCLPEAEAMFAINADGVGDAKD

In test [1] the target is T2, Myc-tagged WT-STN1 (human) (UniProt Q9H668).
T2 sequence: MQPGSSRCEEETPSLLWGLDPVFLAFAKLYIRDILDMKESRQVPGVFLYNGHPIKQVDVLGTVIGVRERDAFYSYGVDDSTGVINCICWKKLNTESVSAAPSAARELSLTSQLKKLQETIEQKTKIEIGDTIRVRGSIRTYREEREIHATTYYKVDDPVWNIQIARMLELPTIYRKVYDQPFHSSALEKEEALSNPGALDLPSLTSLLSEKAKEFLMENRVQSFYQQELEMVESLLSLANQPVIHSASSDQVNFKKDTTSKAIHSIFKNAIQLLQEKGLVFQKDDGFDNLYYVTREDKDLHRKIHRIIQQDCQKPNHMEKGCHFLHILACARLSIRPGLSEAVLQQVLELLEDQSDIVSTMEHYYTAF
The test is described as above.

Test [2] deals with T3, Myc-S96A-STN1 (human) (UniProt Q9H668).
T3 sequence: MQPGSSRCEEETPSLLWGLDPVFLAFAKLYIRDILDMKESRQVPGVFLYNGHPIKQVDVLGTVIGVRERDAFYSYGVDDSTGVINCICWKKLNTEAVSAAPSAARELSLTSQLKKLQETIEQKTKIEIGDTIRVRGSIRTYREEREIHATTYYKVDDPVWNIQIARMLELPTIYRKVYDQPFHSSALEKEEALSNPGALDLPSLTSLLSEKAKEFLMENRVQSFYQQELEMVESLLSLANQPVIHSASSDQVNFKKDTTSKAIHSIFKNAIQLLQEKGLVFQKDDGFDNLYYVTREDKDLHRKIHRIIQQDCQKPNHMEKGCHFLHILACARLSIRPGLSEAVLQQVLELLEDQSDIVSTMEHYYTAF
The test is described as above.

Test [3] deals with Flag-CTC1-STN1-TEN1-His6 wild-type CST complex (human) (UniProt Q2NKJ3+Q9H668+Q86WV5). The test is described as follows: pull-down; 1 µM CST (His6 at the C-terminus of TEN1) with 1 µM RAD51, 20 min at 37 °C, 35 mM Tris-HCl pH 7.5, 10% glycerol, 0.01% Igepal, 1 mM 2-mercaptoethanol, 10 mM imidazole, 50 mM KCl; captured on His-Tag Dynabeads; SDS-PAGE, Coomassie blue; both purified.

Test [4] addresses CTC1-S96A-TEN1 complex (human) (UniProt Q2NKJ3+Q9H668+Q86WV5). Described as above.
Test [5] has as its target CTC1-S96D-TEN1 complex (human) (UniProt Q2NKJ3+Q9H668+Q86WV5). Described as above.
For test [6], the target named is T2, Myc-tagged WT-STN1 (human). Briefly: co-IP; HEK293T co-transfected with Flag-CTC1, HA-TEN1 and Myc-WT-STN1 or Myc-S96A, HU for 3 h (4 mM in the methods, 2 mM in the legend); anti-Myc antibody overnight at 4 °C, protein G agarose; lysis buffer 0.1% NP-40, 50 mM Tris-HCl pH 7.4, 50 mM NaCl, 2 mM DTT; western blot.
The target in test [7] is T3, Myc-S96A-STN1 (human). The test is described as above.

These are yes or no findings as the source states them, for the method shown. For some of these results: Binding seen in cells or lysates may run through a third protein. Some entries that bind do so weakly or less than the wild type. For some of these results: Sequences can lack the tags named with a protein.

Consider “DNA Polymerase α (POLα) (from UniProt P09884 1-1462)”, for which the binding entry (in the test with Myc-S96D STN1 (human); in test [1]; with Myc-S96A-STN1 (human) [2]) was “binds” each time.

For “RAD51 (purified protein of the affinity pulldown) (from UniProt Q06609 1-339)”, the binding entry in test [3], in test [4] and in test [5] was “binds” in each case.

B1: HA-TEN1 (protein, UniProt Q86WV5 1-123)
chain: MMLPKPGTYYLPWEVSAGQVPDGSTLRTFGRLCLYDMIQSRVTLMAQHGSDQHQVLVCTKLVEPFHAQVGSLYIVLGELQHQQDRGSVVKARVLTCVEGMNLPLLEQAIREQRLYKQERGGSQ
With B1, the binding entry (in test [6]; with Myc-S96A-STN1 (human) [7]) was “binds” in each case.

B2: Flag-CTC1 (protein, UniProt Q2NKJ3 1-1217)
chain: MAAGRAQVPSSEQAWLEDAQVFIQKTLCPAVKEPNVQLTPLVIDCVKTVWLSQGRNQGSTLPLSYSFVSVQDLKTHQRLPCCSHLSWSSSAYQAWAQEAGPNGNPLPREQLLLLGTLTDLSADLEQECRNGSLYVRDNTGVLSCELIDLDLSWLGHLFLFPRWSYLPPARWNSSGEGHLELWDAPVPVFPLTISPGPVTPIPVLYPESASCLLRLRNKLRGVQRNLAGSLVRLSALVKSKQKAYFILSLGRSHPAVTHVSIIVQVPAQLVWHRALRPGTAYVLTELRVSKIRGQRQHVWMTSQSSRLLLLKPECVQELELELEGPLLEADPKPLPMPSNSEDKKDPESLVRYSRLLSYSGAVTGVLNEPAGLYELDGQLGLCLAYQQFRGLRRVMRPGVCLQLQDVHLLQSVGGGTRRPVLAPCLRGAVLLQSFSRQKPGAHSSRQAYGASLYEQLVWERQLGLPLYLWATKALEELACKLCPHVLRHHQFLQHSSPGSPSLGLQLLAPTLDLLAPPGSPVRNAHNEILEEPHHCPLQKYTRLQTPSSFPTLATLKEEGQRKAWASFDPKALLPLPEASYLPSCQLNRRLAWSWLCLLPSAFCPAQVLLGVLVASSHKGCLQLRDQSGSLPCLLLAKHSQPLSDPRLIGCLVRAERFQLIVERDVRSSFPSWKELSMPGFIQKQQARVYVQFFLADALILPVPRPCLHSATPSTPQTDPTGPEGPHLGQSRLFLLCHKEALMKRNFCVPPGASPEVPKPALSFYVLGSWLGGTQRKEGTGWGLPEPQGNDDNDQKVHLIFFGSSVRWFEFLHPGQVYRLIAPGPATPMLFEKDGSSCISRRPLELAGCASCLTVQDNWTLELESSQDIQDVLDANKSLPESSLTDLLSDNFTDSLVSFSAEILSRTLCEPLVASLWMKLGNTGAMRRCVKLTVALETAECEFPPHLDVYIEDPHLPPSLGLLPGARVHFSQLEKRVSRSHNVYCCFRSSTYVQVLSFPPETTISIPLPHIYLAELLQGGQSPFQATASCHIVSVFSLQLFWVCAYCTSICRQGKCTRLGSTCPTQTAISQAIIRLLVEDGTAEAVVTCRNHHVAAALGLCPREWASLLDFVQVPGRVVLQFAGPGAQLESSARVDEPMTMFLWTLCTSPSVLRPIVLSFELERKPSKIVPLEPPRLQRFQCGELPFLTHVNPRLRLSCLSIRESEYSSSLGILASSC
For the molecule B2, the binding entry (in test [6]; with Myc-S96A-STN1 (human) [7]) was “binds” throughout.
